According to patent US7469185B2, “Primary rat hepatocyte toxicity modeling” (Ocimum Biosolutions, Inc., priority 2002, dated 2008):

What was measured:
[1] = in vitro; details: male, Sprague-Dawley, rat
Experimental: (§1) Identification of toxicity markers was performed by microarray analysis and by the AlamarBlue® assay, a classical measure of cytotoxicity. The AlamarBlue® assay was performed in triplicate.
(§2) The source of the primary rat hepatocytes was Sprague Dawley Outbred CDs Rats (CRL:CD®[SD] IGS BR, Charles River Laboratories). […] Primary rat hepatocytes were received the day after the cells were removed from the animals. After arrival, the cells, the cells were incubated overnight (˜15 hrs) before the toxin was added to the cultures. […] Toxin or vehicle was administered to hepatocyte cultures as follows. For each treatment, i.e., vehicle alone, vehicle+toxin at low dose, or vehicle+toxin at high dose, cells were harvested after 3, 6 and 24-hour incubations with the toxin solution or with the vehicle.
The AlamarBlue® assay was performed as follows, using only the 24-hour time point samples. • 1. […] Alternatively, two absorbance readings can be measured for the oxidized (600 nm) and the reduced (570 nm) form of AlamarBlueg. After obtaining absorbance readings, results were calculated according to the manufacturer's protocol provided in the product description. • 9. The data were evaluated to determine whether or not the toxin reduced cell viability. If so, the dose of the toxin that reduced cell viability by ˜10-20% was determined. […]

[2] = tested on: primary rat hepatocytes; experiment: Microarray gene expression analysis (Affymetrix rat array) of toxin-exposed hepatocytes, with linear discriminant score; type: cell-based; details: 24 hrs, high dose
Experimental: as §1, §2
More than 10^7 cells are typically prepared for each sample. RNA was collected at 3, 6 and 24 hours following addition of the toxin according to the following procedure.
Each flask contained ˜10-20 million cells. The contents of each flask were mixed vigorously for one minute with a vortex mixer and then aspirated up and down 5 times with a pipette. The contents of each flask (˜12 ml each) was collected into a 50 ml conical polypropylene tissue culture tube (Falcon), snap frozen in liquid nitrogen and stored at ≦−86° C.
Microarray sample preparation was conducted with minor modifications, following the protocols set forth in the Affymetrix GeneChip® Expression Analysis Manual. Frozen cells were ground to a powder using a Spex Certiprep 6800 Freezer Mill. Total RNA was extracted with Trizol (GibcoBRL) utilizing the manufacturer's protocol. […] Double stranded cDNA was generated from mRNA using the SuperScript Choice system (GibcoBRL). First strand cDNA synthesis was primed with a T7-(dT24) oligonucleotide. The cDNA was phenol-chloroform extracted and ethanol precipitated to a final concentration of […]. From 2 μg of cDNA, cRNA was synthesized using Ambion's T7 MegaScript in vitro Transcription Kit.
To biotin label the cRNA, nucleotides Bio-11-CTP and Bio-16-UTP (Enzo Diagnostics) were added to the reaction. Following a 37° C. incubation for six hours, impurities were removed from the labeled cRNA following the RNeasy Mini kit protocol (Qiagen). cRNA was fragmented (fragmentation buffer consisting of 200 mM Tris-acetate, pH 8.1, 500 mM KOAc, 150 mM MgOAc) for thirty-five minutes at 94° C. Following the Affymetrix protocol, 55 μg of fragmented cRNA was hybridized on the Affymetrix rat array set for twenty-four hours at 60 rpm in a 45° C. hybridization oven. The chips were washed and stained with Streptavidin Phycoerythrin (SAPE) (Molecular Probes) in Affymetrix fluidics stations. To amplify staining, SAPE solution was added twice with an anti-streptavidin biotinylated antibody (Vector Laboratories) staining step in between. Hybridization to the probe arrays was detected by fluorometric scanning (Hewlett Packard Gene Array Scanner). Data was analyzed using Affymetrix GeneChip® version 3.0 and Expression Data Mining Tool (EDMT) software (version 1.0), S-Plus, and the GeneExpress® software system.
Each gene is identified by its Gene Logic identification number and can be cross-referenced to a gene name and representative SEQ ID NO. in Table 1.

CCCCc1oc2ccccc2c1C(=O)c1cc(I)c(OCCN(CC)CC)c(I)c1 [Amiodarone]
viability at 24 h, 6 uM [1]: ~100%
viability at 24 h, 60 uM [1]: 80 to 85%
Mean Tox, GLGC ID NO. 382 [2]: −29.6223
Mean Tox, GLGC ID NO. 570 [2]: 508.8248
Mean Tox, GLGC ID NO. 575 [2]: 31.8003
Mean Tox, GLGC ID NO. 588 [2]: 82.1803
Mean Tox, GLGC ID NO. 670 [2]: 81.5793
Mean Tox, GLGC ID NO. 771 [2]: 91.2233
Mean Tox, GLGC ID NO. 818 [2]: 380.2108
Mean Tox, GLGC ID NO. 820 [2]: 143.5745
Mean Tox, GLGC ID NO. 1037 [2]: 164.9610
Mean Tox, GLGC ID NO. 1130 [2]: 302.9488
Mean Tox, GLGC ID NO. 1146 [2]: 96.6360
Mean Tox, GLGC ID NO. 1148 [2]: 590.6433
Mean Tox, GLGC ID NO. 1376 [2]: 31.9268
Mean Tox, GLGC ID NO. 1504 [2]: 81.2268
Mean Tox, GLGC ID NO. 1546 [2]: 30.2790
Mean Tox, GLGC ID NO. 1583 [2]: 219.5193
Mean Tox, GLGC ID NO. 1798 [2]: 339.0583
Mean Tox, GLGC ID NO. 1818 [2]: 302.7925
Mean Tox, GLGC ID NO. 1850 [2]: 806.1135
Mean Tox, GLGC ID NO. 1854 [2]: 714.9543
Mean Tox, GLGC ID NO. 1925 [2]: 197.1045
Mean Tox, GLGC ID NO. 1942 [2]: −4.0835
Mean Tox, GLGC ID NO. 2528 [2]: 556.9448
Mean Tox, GLGC ID NO. 2818 [2]: 739.8768
Mean Tox, GLGC ID NO. 3062 [2]: 390.7458
Mean Tox, GLGC ID NO. 3475 [2]: 215.6923
Mean Tox, GLGC ID NO. 3917 [2]: 54.9983
Mean Tox, GLGC ID NO. 4517 [2]: 115.6470
Mean Tox, GLGC ID NO. 4521 [2]: 142.5955
Mean Tox, GLGC ID NO. 4547 [2]: 164.5733
Mean Tox, GLGC ID NO. 4593 [2]: 579.0483
Mean Tox, GLGC ID NO. 4594 [2]: 966.2893
Mean Tox, GLGC ID NO. 5355 [2]: 178.6520
Mean Tox, GLGC ID NO. 5377 [2]: 87.0393
Mean Tox, GLGC ID NO. 5497 [2]: 35.1683
Mean Tox, GLGC ID NO. 6005 [2]: 984.5308
Mean Tox, GLGC ID NO. 6049 [2]: 2163.6495
Mean Tox, GLGC ID NO. 6425 [2]: 258.8950
Mean Tox, GLGC ID NO. 6808 [2]: 812.3230
Mean Tox, GLGC ID NO. 7147 [2]: 508.5110
Mean Tox, GLGC ID NO. 7359 [2]: 273.9243
Mean Tox, GLGC ID NO. 7459 [2]: 678.6165
Mean Tox, GLGC ID NO. 7596 [2]: 400.8305
Mean Tox, GLGC ID NO. 7683 [2]: 1272.7238
Mean Tox, GLGC ID NO. 8057 [2]: 76.9045
Mean Tox, GLGC ID NO. 8182 [2]: 255.6065
Mean Tox, GLGC ID NO. 8266 [2]: 606.4828
Mean Tox, GLGC ID NO. 8599 [2]: 90.3548
Mean Tox, GLGC ID NO. 8926 [2]: 358.0805
Mean Tox, GLGC ID NO. 9399 [2]: 391.2453
Mean Tox, GLGC ID NO. 10503 [2]: 55.4060
Mean Tox, GLGC ID NO. 11173 [2]: 156.9755
Mean Tox, GLGC ID NO. 11550 [2]: 93.4875
Mean Tox, GLGC ID NO. 12299 [2]: 215.0775
Mean Tox, GLGC ID NO. 12354 [2]: 473.1683
Mean Tox, GLGC ID NO. 12479 [2]: 428.2905
Mean Tox, GLGC ID NO. 12769 [2]: 172.1220
Mean Tox, GLGC ID NO. 12908 [2]: 721.7805
Mean Tox, GLGC ID NO. 12916 [2]: 64.4325
Mean Tox, GLGC ID NO. 13005 [2]: 304.0158
Mean Tox, GLGC ID NO. 14034 [2]: 164.4735
Mean Tox, GLGC ID NO. 14656 [2]: 157.5353
Mean Tox, GLGC ID NO. 15500 [2]: 645.6283
Mean Tox, GLGC ID NO. 15644 [2]: 846.1423
Mean Tox, GLGC ID NO. 15661 [2]: 64.1050
Mean Tox, GLGC ID NO. 15682 [2]: 109.9260
Mean Tox, GLGC ID NO. 15891 [2]: 664.6183
Mean Tox, GLGC ID NO. 16017 [2]: 93.8553
Mean Tox, GLGC ID NO. 16018 [2]: 249.3688
Mean Tox, GLGC ID NO. 16314 [2]: 117.0538
Mean Tox, GLGC ID NO. 16346 [2]: 354.4890
Mean Tox, GLGC ID NO. 16376 [2]: 36.7405
